For assay [1], the target named is T1, GST-tagged F1 region of MP-GAP (AA255-641) (human) (UniProt Q6P4F7).
T1 sequence: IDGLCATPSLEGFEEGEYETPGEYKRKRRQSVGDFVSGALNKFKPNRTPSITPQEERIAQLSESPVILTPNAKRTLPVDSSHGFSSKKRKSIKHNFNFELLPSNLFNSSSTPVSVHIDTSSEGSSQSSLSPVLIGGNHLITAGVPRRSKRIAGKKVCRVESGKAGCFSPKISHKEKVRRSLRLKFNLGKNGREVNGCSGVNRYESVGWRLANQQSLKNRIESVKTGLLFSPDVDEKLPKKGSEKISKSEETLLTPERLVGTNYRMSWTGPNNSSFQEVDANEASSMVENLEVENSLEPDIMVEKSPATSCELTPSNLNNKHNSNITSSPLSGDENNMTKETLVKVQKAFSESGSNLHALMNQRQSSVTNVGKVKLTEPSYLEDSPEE
Description: pull-down.

The target of assay [2] is T2, GST-tagged phosphomimetic F1 region of MP-GAP (S285D, S304D, S345D) (human) (UniProt Q6P4F7).
T2 sequence: T1 sequence with S31D, S50D, S91D
Description: pull-down.

In assay [3] the target is T3, GST-tagged GAP domain of MP-GAP (AA2-253) (human) (UniProt Q6P4F7).
T3 sequence: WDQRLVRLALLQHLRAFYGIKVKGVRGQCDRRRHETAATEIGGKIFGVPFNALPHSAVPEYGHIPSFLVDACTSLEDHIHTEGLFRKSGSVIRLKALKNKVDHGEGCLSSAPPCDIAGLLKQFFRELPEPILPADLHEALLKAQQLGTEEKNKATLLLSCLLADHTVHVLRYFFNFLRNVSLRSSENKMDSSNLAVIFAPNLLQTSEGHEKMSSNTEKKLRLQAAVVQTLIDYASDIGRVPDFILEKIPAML
In words: condition: 1 µg 6xHis-GAP domain with 2 µg GST fragment.

In assay [4] the target is T4, GST-tagged F2 region of MP-GAP (AA641-1023) (human) (UniProt Q6P4F7).
T4 sequence: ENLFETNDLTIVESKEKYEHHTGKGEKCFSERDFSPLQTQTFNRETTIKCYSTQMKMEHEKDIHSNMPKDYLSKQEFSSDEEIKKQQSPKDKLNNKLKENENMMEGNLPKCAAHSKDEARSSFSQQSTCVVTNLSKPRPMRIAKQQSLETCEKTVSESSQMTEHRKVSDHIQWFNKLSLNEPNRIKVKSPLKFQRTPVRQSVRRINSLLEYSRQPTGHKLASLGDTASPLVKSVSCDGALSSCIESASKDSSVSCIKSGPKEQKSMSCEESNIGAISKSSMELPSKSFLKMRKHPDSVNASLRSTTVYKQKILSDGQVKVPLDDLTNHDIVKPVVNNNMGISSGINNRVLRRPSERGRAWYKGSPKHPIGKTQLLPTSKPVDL
The assay is described as above.

Positions count from the first letter of the chain named. Results are given in words; binding and its absence hold for the method and conditions named. For some of these results: A result given as binding can be weak or reduced; the word gives no strength. Sequences can lack the tags named with a protein.

For “6xHis-tagged GAP domain of MP-GAP (human) (domain or fragment)”, the binding entry in assay [1] is “binds”; in assay [2], “binds”; in assay [3], “no binding”; in assay [4], “no binding”.

(Values after paper doi:10.1101/2023.08.08.552464.)
